From PubChem BioAssay AID1420 (Emory University Molecular Libraries Screening Center, 2008)
The whole screen tested about 1,100 compounds, of which about 65 (6%) were called active. The rule behind the calls is not given here. The entries are a selection whose mix differs from that of the whole data set. Measured potencies and affinities stand elsewhere.

Amino acid sequences for entries named in this document (tags omitted). A change or cut given only in a name is not applied to a line headed by its entry.
UniProt P43367: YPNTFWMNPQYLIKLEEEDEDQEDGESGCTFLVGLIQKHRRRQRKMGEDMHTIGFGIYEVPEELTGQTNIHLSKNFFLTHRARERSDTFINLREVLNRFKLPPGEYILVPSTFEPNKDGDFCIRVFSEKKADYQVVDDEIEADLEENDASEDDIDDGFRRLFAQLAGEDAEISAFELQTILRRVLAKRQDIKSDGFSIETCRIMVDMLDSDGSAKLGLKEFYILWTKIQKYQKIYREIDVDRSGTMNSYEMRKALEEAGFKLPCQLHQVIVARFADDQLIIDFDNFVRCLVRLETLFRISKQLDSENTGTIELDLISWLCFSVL

These compounds were tested against Calpain-2 catalytic subunit (Sus scrofa) (UniProt P43367) (assay: m-calpain protease blockers, concentration series – biochemical, fluorogenic peptide substrate, dose response (AID 1420)). Conditions: purified calpain II, 30 min; at 50 µM (top of the series).

Row | SMILES | percent of control activity
1 | O=C(NNC(=O)c1cc(OCC(F)(F)F)ccc1OCC(F)(F)F)c1cccc(C(F)(F)F)c1 | inactive: 119%
2 | CC(C)CCNC(=O)[C@H](CC(C)C)NC(=O)[C@H]1O[C@@H]1C(=O)O | 13.1%
